# Experimental data taken from paper PMC10274954.
# The chains behind the UniProt entries cited, without tags or fusion partners.
# UniProt P62136, whole entry: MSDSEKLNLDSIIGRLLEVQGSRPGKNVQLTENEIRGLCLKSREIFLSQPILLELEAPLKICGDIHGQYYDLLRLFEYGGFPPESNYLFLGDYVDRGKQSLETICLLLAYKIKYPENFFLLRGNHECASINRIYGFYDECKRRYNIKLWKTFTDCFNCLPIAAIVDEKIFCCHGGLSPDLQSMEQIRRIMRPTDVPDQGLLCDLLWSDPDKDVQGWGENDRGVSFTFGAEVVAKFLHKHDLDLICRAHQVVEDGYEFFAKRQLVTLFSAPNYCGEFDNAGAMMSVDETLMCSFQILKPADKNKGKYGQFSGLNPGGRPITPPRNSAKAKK
# These are yes or no findings as the source states them, for the method shown. Binding seen in cells or lysates may run through a third protein. Some entries that bind do so weakly or less than the wild type.
# Assays:
# V5-tagged PP1 alpha = V5-tagged PP1 alpha (UniProt P62136); assay: co-IP
# [1] = molecular target: Protein phosphatase-1 (PP1) fused to LgBiT (UniProt P62136); assay: split reporter
substance,measurement,setting,value
"Flag-tagged NP, wild type (co-immunoprecipitation) (from UniProt P18272 1-739)",binding,V5-tagged PP1 alpha,binds
"Ebola virus nucleoprotein (NP), wild type, split NanoBiT fusion (from UniProt P18272 1-739)",binding,[1],binds
